The target in one series is EGFR (UniProt P00533). As to the kind of experiment: SPR. The note with it: purified recombinant protein, protein details: R&D Systems, amine-coupled to sensor chip, label: 5' biotin.
Series [1] addresses EGFR (on A431, LN-18 or A549 cells) (UniProt P00533). As to the kind of experiment: flow cytometry. The settings on record: protein on the cell surface, label: 5' biotin.
Where [2] appears, read: 2'-F all C and U, medium binding, reduced Rmax, PBS, 5 mM MgCl2, 20 C.

For some assays here: A weaker result is weaker than the reference pair of the same experiment. For some assays here: Where cells or extracts were used, other partners may take part.

As to “GGACGGAUUUAAUCGCCGUAGAAAAGCAUGUCAAAGCCGGAACCGUCC [ALT102099.01]”, the binding result in the series with EGFR (2'-F all C and U, 2'-OMe A42, medium binding, low Rmax, PBS, 5 mM MgCl2, 20 C) is reported as “binds more weakly”.
Turning to “UAAUCGCCGUAGAAAAGCAUGUCAAAGCCGGAACCGUCC [ALT102012.01]”, the binding result with EGFR (setting [2]) is “binds more weakly”.
Turning to “GGACGGAUUUAAUCGCCGUAGAAAAGCAUGUCAAAGCCGGAACCGUCC [ALT102115.01]”, the binding result with EGFR (2'-F all C and U and G18, medium binding, low Rmax, PBS, 5 mM MgCl2, 20 C) was “binds more weakly”.
“GGACGGAUUUAAUCGCCGUAGAAAAGCAUGUCAAAGCCGGAACCGUCC [ALT102106.01]”: the binding result with EGFR (2'-F all C and U and G1, medium binding, slightly lower Rmax, PBS, 5 mM MgCl2, 20 C) is “binds more weakly”.
Turning to “GGGAUUUAAUCGCCGUAGAAAAGCAUGUCAAAGCCGGAACCC [ALT102139.01]”, in series [1] (2'-F all C and U, 2'-OMe at own positions 1-4,12,15,17,18,20,21,23,25,27,30,33,36-38, LN-18 and A549 cells, equivalent to MinE07), the binding result is “binds”.
On to “CGGAUUUAAUCGCCGUAGAAAAGCAUGUCAAAGCCGGAACCGUCC [ALT102010.01]”, for which, in the series with EGFR (2'-F all C and U, medium binding, reduced Rmax, PBS, 5 mM MgCl2, 0.05% Tween, 20 C), the binding result is reported as “binds more weakly”.
As for “GGACGGAUUUAAUCGCCGUAGAAAAGCAUGUCAAAGCCGGAACCGUCC [ALT102092.01]”, in the series with EGFR (2'-F all C and U, 2'-OMe A35, medium binding, low Rmax, PBS, 5 mM MgCl2, 20 C), the binding result was “binds more weakly”.
As to “GGACGGAUUUAAUCGCCGUAGAAAAGCAUGUCAAAGCCGGAACCGUCC [ALT102066.01]”, in series [1] (2'-F all C and U except 2'-OMe U9, A431 cells, 50 or 100 nM aptamer), the binding result is on record as “binds”.
As to “GGACGGAUUUAAUCGCCGUAGAAAAGCAUGUCAAAGCCGGAACCGUCC [ALT102082.01]”, in the series with EGFR (2'-F all C and U, 2'-OMe A25, medium binding, low Rmax, PBS, 5 mM MgCl2, 20 C), the binding result is on record as “binds more weakly”.
As for “GGACGGAUUUAAUCGCCGUAGAAAAGCAUGUCAAAGCCGGAACCGUCC [ALT102135.01]”, the binding result in series [1] (2'-F all C and U, 2'-OMe at 1-3,5-7,15,18,20,21,23,24,26,28,30,33,36,39-41,45, LN-18 and A549 cells, equivalent to MinE07) is “binds”.
Consider “GGACGGAUUUAAUCGCCGUAGAAAAGCAUGUCAAAGCCGGAACCGUCC [ALT102079.01]”, for which, in the series with EGFR (2'-F all C and U, 2'-OMe A22, medium binding, low Rmax, PBS, 5 mM MgCl2, 20 C), the binding result is “binds more weakly”.
Regarding “GGGAUUUAAUCGCCGUAGAAAAGCAUGUCAAAGCCGGAACCC [ALT102054.01]”, the binding result in series [1] (2'-F all C and U, A431 and A549 cells, 50 or 100 nM aptamer, equivalent to MinE07) is recorded as “binds”.
On to “GGACGGAUUUAAUCGCCGUAGAAAAGCAUGUCAAAGCCGGAACCGUCC [ALT102124.01]”, for which the binding result with EGFR (2'-F all C and U and G30) is on record as “binds more weakly”.
As to “GGACGGAUUUAAUCGCCGUAGAAAAGCAUGUCAAAGCCGGAACCGUCC [ALT102113.01]”, in the series with EGFR (2'-F all C and U and A12, medium binding, low Rmax, PBS, 5 mM MgCl2, 20 C), the binding result is “binds more weakly”.
For “GGACGGAUUUAAUCGCCGUAGAAAAGCAUGUCAAAGCCGGAACCGUCC [ALT102100.01]”, the binding result with EGFR (2'-F all C and U except 2'-OMe C43, medium binding, low Rmax, PBS, 5 mM MgCl2, 20 C) was “binds more weakly”.
Regarding “GGACGGAUUUAAUCGCCGUAGAAAAGCAUGUCAAAGCCGGAACCGUCC [ALT102101.01]”, the binding result with EGFR (2'-F all C and U except 2'-OMe C44, medium binding, low Rmax, PBS, 5 mM MgCl2, 20 C) is “binds more weakly”.
Consider “GGAAUUUAAUCGCCGUAGAAAAGCAUGUCAAAGCCGGAACCGUCC [ALT102039.01]”, for which the binding result in the series with EGFR (setting [2]) was “binds more weakly”.
“AAAGGACGGAUUUAAUCGCCGUAGAAAAGCAUGUCAAAGCCGGAACCGUCC [ALT102145.01]”: the binding result in series [1] (2'-F all C and U, 2'-OMe A1-A3, LN-18 and A549 cells, equivalent to MinE07) is recorded as “binds”.
Consider “AUUUAAUCGCCGUAGAAAAGCAUGUCAAAGCCGGAACCGUCC [ALT102011.01]”, for which the binding result with EGFR (setting [2]) is recorded as “binds more weakly”.
For “GGACGGAUUUAAUCGCCGUAGAAAAGCAUGUCAAAGCCGGAACCGUCC [ALT102071.01]”, the binding result with EGFR (2'-F all C and U except 2'-OMe C14) is listed as “binds more weakly”.

For the origin of these results see US20170130226.
